Results are given in words; binding and its absence hold for the method and conditions named. In cells and extracts the contact can be indirect. Some entries that bind do so weakly or less than the wild type.
Molecular target: T1, Small heterodimer partner (SHP; NR0B2) (mouse (endogenous in liver)) (UniProt Q62227)
T1 sequence: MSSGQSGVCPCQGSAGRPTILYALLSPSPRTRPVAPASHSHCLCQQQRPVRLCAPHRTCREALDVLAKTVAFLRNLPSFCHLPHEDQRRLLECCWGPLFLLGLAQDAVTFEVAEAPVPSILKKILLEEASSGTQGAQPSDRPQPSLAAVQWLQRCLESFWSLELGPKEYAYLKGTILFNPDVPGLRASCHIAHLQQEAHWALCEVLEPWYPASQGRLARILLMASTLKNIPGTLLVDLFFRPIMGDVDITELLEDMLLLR
Test: co-IP; total liver protein extracts of WT and db/db mice, with or without melatonin, immunoprecipitated with SHP and CREBH antibodies (Santa Cruz) and immunoblotted; endogenous proteins

- binding: binds
B1: Cyclic adenosine monophosphate (cAMP)-responsive element-binding protein H (CREBH) (protein, UniProt Q91XE9 1-479)
chain: MDGDIAAGKMASPVCAMAPLDSMEVLDLLFDRQDGILRNVELAEGWILAREEQKVLLNSDSDEFLNCILGPGDSDPSSPLWSPADSDSGISEDLPSDPQDTPPRSGTEPANTVARCHTREQGKGPCPSYLPSTPCPEPPRTQVQESSVAIDLDMWSTDTLYPEEPAGSPSRFNLTVKELLLSGGSGDLQQHSLAASQLLGPGSGHCQELVLTEDEKKLLAKEGVTLPTQLPLTKYEERVLKKIRRKIRNKQSAQESRKKKKEYIDGLENRMSACTAQNQELQRKVLHLEKQNLSLLEQLKHLQALVVQSTSKPAHAGTCIAVLLLSFALIILPSISPFNSNKVDSPGDFVPVRVFSRTLHNHAASRVAPDVTPGSEVPGPWPDVGTPHKGPSSGGLSADWGNFLEIPMLDNLTEELDNSTLVLANSTEDLGRATLLDWVASEPLLSPGRVGLEIPGEMWLSWVPRWLRVRLVQDALGVL
